Measured values from US20130157945A1.
No constants are given. Whether binding was seen depends on the method and setting. For part of these data: In cells and extracts the contact can be indirect. Some binding calls cover weakened binding; strength is not graded here.

Protein sequences, listed by entry. Tags and fused reporters are not part of them. Lines headed by an entry give the natural chain unless they say otherwise; changes in a name come on top. Residues count along the entry.
UniProt P20333: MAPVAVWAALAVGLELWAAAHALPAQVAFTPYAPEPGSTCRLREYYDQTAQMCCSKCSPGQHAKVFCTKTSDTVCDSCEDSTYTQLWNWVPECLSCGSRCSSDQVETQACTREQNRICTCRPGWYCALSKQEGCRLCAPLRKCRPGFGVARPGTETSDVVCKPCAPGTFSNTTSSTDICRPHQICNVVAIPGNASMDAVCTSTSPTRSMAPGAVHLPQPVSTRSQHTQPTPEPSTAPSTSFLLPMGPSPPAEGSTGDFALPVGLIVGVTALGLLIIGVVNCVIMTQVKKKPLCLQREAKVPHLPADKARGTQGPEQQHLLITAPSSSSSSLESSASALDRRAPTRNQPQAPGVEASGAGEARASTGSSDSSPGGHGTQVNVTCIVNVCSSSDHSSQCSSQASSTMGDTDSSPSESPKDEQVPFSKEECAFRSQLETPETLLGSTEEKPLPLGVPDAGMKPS
TNFR2 (endogenous, human chondrocytes): residues 23-461 of P20333
extracellular domain of TNFR2 (TNFR2ECD), recombinant, R & D System: residues 23-257 of P20333
UniProt P19438, residues 30-211: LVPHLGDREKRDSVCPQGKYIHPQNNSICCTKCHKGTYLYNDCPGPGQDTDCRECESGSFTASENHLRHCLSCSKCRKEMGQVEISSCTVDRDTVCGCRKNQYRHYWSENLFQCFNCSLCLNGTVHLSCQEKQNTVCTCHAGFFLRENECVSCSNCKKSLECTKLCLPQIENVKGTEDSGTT
UniProt P28799: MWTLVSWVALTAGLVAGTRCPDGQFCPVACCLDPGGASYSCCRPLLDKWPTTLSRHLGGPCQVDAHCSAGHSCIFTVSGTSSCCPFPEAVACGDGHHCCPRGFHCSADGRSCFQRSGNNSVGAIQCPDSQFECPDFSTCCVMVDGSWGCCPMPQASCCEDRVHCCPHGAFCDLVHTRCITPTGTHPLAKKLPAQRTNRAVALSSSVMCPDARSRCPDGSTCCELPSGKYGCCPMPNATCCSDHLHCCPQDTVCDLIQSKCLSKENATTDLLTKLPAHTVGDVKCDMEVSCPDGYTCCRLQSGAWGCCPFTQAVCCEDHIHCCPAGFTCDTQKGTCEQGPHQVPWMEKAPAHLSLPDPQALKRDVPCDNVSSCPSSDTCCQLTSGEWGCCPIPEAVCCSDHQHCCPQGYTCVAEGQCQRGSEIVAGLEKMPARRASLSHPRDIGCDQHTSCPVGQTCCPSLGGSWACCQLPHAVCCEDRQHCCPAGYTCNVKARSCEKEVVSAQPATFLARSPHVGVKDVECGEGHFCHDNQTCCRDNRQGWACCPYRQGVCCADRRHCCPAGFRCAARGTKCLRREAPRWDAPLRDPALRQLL

Key:
[1] = target: TNFR2 (endogenous, human chondrocytes) (human) (UniProt P20333); assay: co-immunoprecipitation with anti-TNFR2, immunoblot with anti-GEP
[2] = target: TNFR2 (endogenous, human chondrocytes) (human) (UniProt P20333); assay: co-immunoprecipitation with anti-TNFR2, immunoblot with anti-GEP (FIG. 2B)
[3] = target: extracellular domain of TNFR1 (TNFR1ECD), recombinant, R & D System (UniProt P19438); assay: solid-phase binding assay, 500 ng GEP coated, 5-500 ng TNFR1ECD, detected with anti-TNFR1 and HRP secondary antibody
[4] = target: extracellular domain of TNFR2 (TNFR2ECD), recombinant, R & D System (UniProt P20333); assay: solid-phase binding assay, 500 ng GEP coated, 5-500 ng TNFR2ECD, detected with anti-TNFR2 and HRP secondary antibody
[5] = target: extracellular domain of TNFR2 (TNFR2ECD), recombinant, R & D System (UniProt P20333); assay: solid-phase binding assay (FIG. 3)
[6] = target: extracellular domain of TNFR1 (TNFR1ECD), recombinant, R & D System (UniProt P19438); assay: solid-phase binding assay (FIG. 3)

Measured: binding

GEP (endogenous, extracts of primary human chondrocytes) (from UniProt P28799 18-593) (ligand)
binds: [1] | [2]

recombinant GEP (granulin/epithelin precursor) (from UniProt P28799 18-593) (ligand)
binds: [3] | [4] | [5] | [6]
